Patent US5670621
Construct, isoform or probe ends are uncertain for at least one entry. Where cells or extracts were used, other partners may take part. Negatives hold for the conditions tested.

Chains of the proteins cited; added tags and fusions are not shown. A line that says so, or that is headed by a name, gives the form on record, which may keep a tag or linker.
cis-DDP SSRP (cellular structure-specific recognition protein) (Homo sapiens), one chain, as listed by the source: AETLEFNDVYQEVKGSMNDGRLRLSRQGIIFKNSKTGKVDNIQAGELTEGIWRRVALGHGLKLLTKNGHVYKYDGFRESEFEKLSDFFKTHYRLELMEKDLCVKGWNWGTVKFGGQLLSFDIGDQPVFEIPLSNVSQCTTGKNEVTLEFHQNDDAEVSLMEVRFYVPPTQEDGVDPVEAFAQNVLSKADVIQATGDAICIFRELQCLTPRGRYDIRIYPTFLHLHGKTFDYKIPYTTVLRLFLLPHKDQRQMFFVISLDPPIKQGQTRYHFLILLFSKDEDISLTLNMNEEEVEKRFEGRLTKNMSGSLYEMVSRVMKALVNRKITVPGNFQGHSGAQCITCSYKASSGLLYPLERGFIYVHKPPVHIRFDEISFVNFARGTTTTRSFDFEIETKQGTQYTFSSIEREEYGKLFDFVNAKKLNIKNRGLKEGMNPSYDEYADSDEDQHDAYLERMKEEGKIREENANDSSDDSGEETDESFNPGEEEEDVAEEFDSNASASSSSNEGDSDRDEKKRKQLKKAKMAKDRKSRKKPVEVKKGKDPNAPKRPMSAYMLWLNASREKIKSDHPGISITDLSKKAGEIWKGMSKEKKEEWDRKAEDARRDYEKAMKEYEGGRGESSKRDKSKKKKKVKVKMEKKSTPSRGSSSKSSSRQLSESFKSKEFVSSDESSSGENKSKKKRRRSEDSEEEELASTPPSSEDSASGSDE

Tested on: cis-DDP SSRP (cellular structure-specific recognition protein) (Homo sapiens)
Test: EMSA
Conditions: protein in an extract, protein details: HeLa nuclear or cytosolic extract, ca. 91-100 kDa, label: 32P, only the site is given

Question: Does “TCTCCTTCTTGGTTCTCTTCTC (double strand) [110 bp ligated 22-mer, unmodified]” bind (only nonspecific binding, variant of 110 bp ligated 22-mer, cis 1,2-d(GpG))?
Answer: no binding

Question: Does “TCTCCTTCTTGGTTCTCTTCTC (double strand) [110 bp ligated 22-mer, cis 1,2-d(GpG)]” bind (cis-DDP 1,2-intrastrand d(GpG) adduct)?
Answer: binds

Question: Does “TCTCCTTCTTGTGTCTCTTCTC (double strand) [110 bp ligated 22-mer, trans 1,3-d(GpTpG)]” bind (trans-DDP 1,3-intrastrand d(GpTpG) adduct)?
Answer: no binding

Question: Does “TCTCCTTCTTGGTTCTCTTCTC (double strand) [44 or 66 bp ligated 22-mer, cis 1,2 adduct]” bind (cis-DDP 1,2-intrastrand adduct, 44 and 66 bp too short, variant of 110 bp ligated 22-mer, cis 1,2-d(GpG))?
Answer: no binding

Question: Does “TCTCCTTCTTCGTTCTCTTCTC (double strand) [110 bp ligated 22-mer, monofunctional N7-dG]” bind (Pt(NH3)2(N3-cytosine) monofunctional N7-d(G) adduct)?
Answer: no binding

Question: Does “TCTCCTTCTTAGTTCTCTTCTC (double strand) [110 bp ligated 22-mer, cis 1,2-d(ApG)]” bind (cis-DDP 1,2-intrastrand d(ApG) adduct)?
Answer: binds

Question: Does “TCTCCTTCTTGTGTCTCTTCTC (double strand) [110 bp ligated 22-mer, cis 1,3-d(GpTpG)]” bind (cis-DDP 1,3-intrastrand d(GpTpG) adduct)?
Answer: no binding
